Assay results taken from patent US20080176891A1, “NOVEL COMPOUNDS” (priority 2006, published 2008).
Some results were stated once for a whole list of compounds, not compound by compound.

Target: T1, Recombinant human IKKβ (residues 5-756) (IKK2) (Homo sapiens, UniProt O14920)
T1 construct: Recombinant human IKKβ (residues 5-756) was expressed in baculovirus; GST (C); made in house
T1 sequence (O14920 5-756): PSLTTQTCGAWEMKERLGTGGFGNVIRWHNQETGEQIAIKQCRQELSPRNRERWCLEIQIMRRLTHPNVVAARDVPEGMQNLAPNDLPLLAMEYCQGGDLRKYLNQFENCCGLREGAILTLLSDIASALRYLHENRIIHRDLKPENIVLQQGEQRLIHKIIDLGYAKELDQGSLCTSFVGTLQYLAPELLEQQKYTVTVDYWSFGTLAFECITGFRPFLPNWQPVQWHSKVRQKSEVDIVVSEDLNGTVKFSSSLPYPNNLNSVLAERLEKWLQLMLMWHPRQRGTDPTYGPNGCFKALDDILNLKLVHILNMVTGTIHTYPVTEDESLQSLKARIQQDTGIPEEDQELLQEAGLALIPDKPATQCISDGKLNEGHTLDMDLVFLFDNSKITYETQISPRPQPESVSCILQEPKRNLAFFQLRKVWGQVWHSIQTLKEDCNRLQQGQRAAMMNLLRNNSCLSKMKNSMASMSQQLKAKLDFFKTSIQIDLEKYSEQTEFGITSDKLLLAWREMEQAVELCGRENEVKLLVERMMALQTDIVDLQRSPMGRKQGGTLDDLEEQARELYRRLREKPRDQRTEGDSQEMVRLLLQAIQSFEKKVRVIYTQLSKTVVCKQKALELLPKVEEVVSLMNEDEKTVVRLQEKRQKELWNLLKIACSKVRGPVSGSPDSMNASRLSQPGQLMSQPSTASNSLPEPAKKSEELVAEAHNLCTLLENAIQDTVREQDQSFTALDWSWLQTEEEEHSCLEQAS
Test: IKK2 assay (TR-FRET)
Assay type: biochemical
Conditions: ATP 1 μM

In the case of “4-[2-(difluoromethyl)-1H-pyrrolo[2,3-b]pyridin-4-yl]-N-(2-hydroxyethyl)-N-methylbenzenesulfonamidetrifluoroacetate [Example 171]”, the “pIC50 potency against IKK2” value is reported as at least 5.0.
